# PubChem BioAssay AID1508597 – Cure First, 2020
# Assay: 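Knock-downs altering ovarian cancer cell survival with or without PARP inhibitor rucaparib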 (primary screen)
# Cells: human ovarian carcinoma lines grown from tumours: OCI-P5x (papillary serous) and OCI-C5x (clear cell)
# Knock-down reagent: siRNA pool against human genes, 1.25 pmol siRNA per well
# Time to read-out: 72 h or 96 h, depending on the cell culture
# Conditions: rucaparib 20 µM (about IC30) or vehicle, present until read-out
# Measured: 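ATP luminescence measured at 72 or 96 h according to the culture, then normalised and expressed as percent viability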
# Direction: viability, normalised: higher = more viable cells remaining
# Call rule: 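a well counts as a hit if its normalised viability is under 80 percent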
# Meaning of the calls: active = viability under 80%; inactive = viability 80% or more
# This is a random part of about 2,100 reagents. 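Calls flag viability under 80% in either arm, not effects specific to rucaparib; the reference for percent is not stated.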 A number with no mark means an inactive call. Some reagents were tested in more than one well and are listed for each. No sequences are given here. Not given: the 100% reference.
gene,rucaparib or vehicle,cell line,technical replicate,"viability, normalised (%)"
LIMK2 (LIM domain kinase 2),Rucaparib,OCI-C5x (clear cell),1,66.2 (active)
LIMK2 (LIM domain kinase 2),Rucaparib,OCI-C5x (clear cell),1,55.8 (active)
LIMK2 (LIM domain kinase 2),Rucaparib,OCI-C5x (clear cell),2,68.8 (active)
LIMK2 (LIM domain kinase 2),Rucaparib,OCI-C5x (clear cell),2,74.9 (active)
LIMK2 (LIM domain kinase 2),Rucaparib,OCI-C5x (clear cell),3,53.1 (active)
LIMK2 (LIM domain kinase 2),Rucaparib,OCI-C5x (clear cell),3,63.1 (active)
LIMK2 (LIM domain kinase 2),Rucaparib,OCI-P5x (serous),1,96.3
LIMK2 (LIM domain kinase 2),Rucaparib,OCI-P5x (serous),1,84.2
LIMK2 (LIM domain kinase 2),Rucaparib,OCI-P5x (serous),2,83.7
LIMK2 (LIM domain kinase 2),Rucaparib,OCI-P5x (serous),2,66.7 (active)
LIMK2 (LIM domain kinase 2),Rucaparib,OCI-P5x (serous),3,102
LIMK2 (LIM domain kinase 2),Rucaparib,OCI-P5x (serous),3,71.9 (active)
LIMK2 (LIM domain kinase 2),Vehicle,OCI-C5x (clear cell),1,93.3
LIMK2 (LIM domain kinase 2),Vehicle,OCI-C5x (clear cell),1,90.1
LIMK2 (LIM domain kinase 2),Vehicle,OCI-C5x (clear cell),2,75 (active)
LIMK2 (LIM domain kinase 2),Vehicle,OCI-C5x (clear cell),2,66.6 (active)
LIMK2 (LIM domain kinase 2),Vehicle,OCI-C5x (clear cell),3,79.3 (active)
LIMK2 (LIM domain kinase 2),Vehicle,OCI-C5x (clear cell),3,67.6 (active)
LIMK2 (LIM domain kinase 2),Vehicle,OCI-P5x (serous),1,87.9
LIMK2 (LIM domain kinase 2),Vehicle,OCI-P5x (serous),1,84.5
LIMK2 (LIM domain kinase 2),Vehicle,OCI-P5x (serous),2,83.3
LIMK2 (LIM domain kinase 2),Vehicle,OCI-P5x (serous),2,80.1
LIMK2 (LIM domain kinase 2),Vehicle,OCI-P5x (serous),3,79.4 (active)
LIMK2 (LIM domain kinase 2),Vehicle,OCI-P5x (serous),3,88.6
NAP1L3 (nucleosome assembly protein 1 like 3),Rucaparib,OCI-C5x (clear cell),1,49.6 (active)
NAP1L3 (nucleosome assembly protein 1 like 3),Rucaparib,OCI-C5x (clear cell),2,38.8 (active)
NAP1L3 (nucleosome assembly protein 1 like 3),Rucaparib,OCI-C5x (clear cell),3,49.6 (active)
NAP1L3 (nucleosome assembly protein 1 like 3),Rucaparib,OCI-P5x (serous),1,29 (active)
NAP1L3 (nucleosome assembly protein 1 like 3),Rucaparib,OCI-P5x (serous),2,37.1 (active)
NAP1L3 (nucleosome assembly protein 1 like 3),Rucaparib,OCI-P5x (serous),3,47.6 (active)
NAP1L3 (nucleosome assembly protein 1 like 3),Vehicle,OCI-C5x (clear cell),1,56.8 (active)
NAP1L3 (nucleosome assembly protein 1 like 3),Vehicle,OCI-C5x (clear cell),2,53.5 (active)
NAP1L3 (nucleosome assembly protein 1 like 3),Vehicle,OCI-C5x (clear cell),3,54.7 (active)
NAP1L3 (nucleosome assembly protein 1 like 3),Vehicle,OCI-P5x (serous),1,47.6 (active)
NAP1L3 (nucleosome assembly protein 1 like 3),Vehicle,OCI-P5x (serous),2,45.8 (active)
NAP1L3 (nucleosome assembly protein 1 like 3),Vehicle,OCI-P5x (serous),3,47.9 (active)
MAP4K3 (mitogen-activated protein kinase kinase kinase kinase 3),Rucaparib,OCI-C5x (clear cell),1,58.5 (active)
MAP4K3 (mitogen-activated protein kinase kinase kinase kinase 3),Rucaparib,OCI-C5x (clear cell),2,77.5 (active)
MAP4K3 (mitogen-activated protein kinase kinase kinase kinase 3),Rucaparib,OCI-C5x (clear cell),3,64.7 (active)
MAP4K3 (mitogen-activated protein kinase kinase kinase kinase 3),Rucaparib,OCI-P5x (serous),1,123
MAP4K3 (mitogen-activated protein kinase kinase kinase kinase 3),Rucaparib,OCI-P5x (serous),2,102
MAP4K3 (mitogen-activated protein kinase kinase kinase kinase 3),Rucaparib,OCI-P5x (serous),3,88.1
MAP4K3 (mitogen-activated protein kinase kinase kinase kinase 3),Vehicle,OCI-C5x (clear cell),1,70.8 (active)
MAP4K3 (mitogen-activated protein kinase kinase kinase kinase 3),Vehicle,OCI-C5x (clear cell),2,50.4 (active)
MAP4K3 (mitogen-activated protein kinase kinase kinase kinase 3),Vehicle,OCI-C5x (clear cell),3,85.1
MAP4K3 (mitogen-activated protein kinase kinase kinase kinase 3),Vehicle,OCI-P5x (serous),1,93.4
MAP4K3 (mitogen-activated protein kinase kinase kinase kinase 3),Vehicle,OCI-P5x (serous),2,100
MAP4K3 (mitogen-activated protein kinase kinase kinase kinase 3),Vehicle,OCI-P5x (serous),3,98.8

Reformatted: 12 of the entries above
LIMK2 (LIM domain kinase 2), rucaparib or vehicle Rucaparib, cell line OCI-P5x (serous), technical replicate 3
- viability, normalised (%): 102

LIMK2 (LIM domain kinase 2), rucaparib or vehicle Rucaparib, cell line OCI-P5x (serous), technical replicate 3
- viability, normalised (%): 71.9 (active)

LIMK2 (LIM domain kinase 2), rucaparib or vehicle Vehicle, cell line OCI-C5x (clear cell), technical replicate 1
- viability, normalised (%): 93.3

LIMK2 (LIM domain kinase 2), rucaparib or vehicle Vehicle, cell line OCI-C5x (clear cell), technical replicate 1
- viability, normalised (%): 90.1

LIMK2 (LIM domain kinase 2), rucaparib or vehicle Vehicle, cell line OCI-C5x (clear cell), technical replicate 2
- viability, normalised (%): 75 (active)

LIMK2 (LIM domain kinase 2), rucaparib or vehicle Vehicle, cell line OCI-C5x (clear cell), technical replicate 2
- viability, normalised (%): 66.6 (active)

LIMK2 (LIM domain kinase 2), rucaparib or vehicle Vehicle, cell line OCI-C5x (clear cell), technical replicate 3
- viability, normalised (%): 79.3 (active)

LIMK2 (LIM domain kinase 2), rucaparib or vehicle Vehicle, cell line OCI-C5x (clear cell), technical replicate 3
- viability, normalised (%): 67.6 (active)

LIMK2 (LIM domain kinase 2), rucaparib or vehicle Vehicle, cell line OCI-P5x (serous), technical replicate 1
- viability, normalised (%): 87.9

LIMK2 (LIM domain kinase 2), rucaparib or vehicle Vehicle, cell line OCI-P5x (serous), technical replicate 1
- viability, normalised (%): 84.5

LIMK2 (LIM domain kinase 2), rucaparib or vehicle Vehicle, cell line OCI-P5x (serous), technical replicate 2
- viability, normalised (%): 83.3

LIMK2 (LIM domain kinase 2), rucaparib or vehicle Vehicle, cell line OCI-P5x (serous), technical replicate 2
- viability, normalised (%): 80.1

Continued.
gene,rucaparib or vehicle,cell line,technical replicate,"viability, normalised (%)"
NIPBL (NIPBL cohesin loading factor),Rucaparib,OCI-C5x (clear cell),1,44.9 (active)
NIPBL (NIPBL cohesin loading factor),Rucaparib,OCI-C5x (clear cell),2,52.1 (active)
NIPBL (NIPBL cohesin loading factor),Rucaparib,OCI-C5x (clear cell),3,27.2 (active)
NIPBL (NIPBL cohesin loading factor),Rucaparib,OCI-P5x (serous),1,54 (active)
NIPBL (NIPBL cohesin loading factor),Rucaparib,OCI-P5x (serous),2,58.7 (active)
NIPBL (NIPBL cohesin loading factor),Rucaparib,OCI-P5x (serous),3,61.3 (active)
NIPBL (NIPBL cohesin loading factor),Vehicle,OCI-C5x (clear cell),1,49.3 (active)
NIPBL (NIPBL cohesin loading factor),Vehicle,OCI-C5x (clear cell),2,43.1 (active)
NIPBL (NIPBL cohesin loading factor),Vehicle,OCI-C5x (clear cell),3,37.8 (active)
NIPBL (NIPBL cohesin loading factor),Vehicle,OCI-P5x (serous),1,50.3 (active)
NIPBL (NIPBL cohesin loading factor),Vehicle,OCI-P5x (serous),2,54.4 (active)
NIPBL (NIPBL cohesin loading factor),Vehicle,OCI-P5x (serous),3,50.8 (active)
TAF8 (TATA-box binding protein associated factor 8),Rucaparib,OCI-C5x (clear cell),1,56.2 (active)
TAF8 (TATA-box binding protein associated factor 8),Rucaparib,OCI-C5x (clear cell),2,39.1 (active)
TAF8 (TATA-box binding protein associated factor 8),Rucaparib,OCI-C5x (clear cell),3,35.9 (active)
TAF8 (TATA-box binding protein associated factor 8),Rucaparib,OCI-P5x (serous),1,66.3 (active)
TAF8 (TATA-box binding protein associated factor 8),Rucaparib,OCI-P5x (serous),2,51.2 (active)
TAF8 (TATA-box binding protein associated factor 8),Rucaparib,OCI-P5x (serous),3,61.9 (active)
TAF8 (TATA-box binding protein associated factor 8),Vehicle,OCI-C5x (clear cell),1,43 (active)
TAF8 (TATA-box binding protein associated factor 8),Vehicle,OCI-C5x (clear cell),2,42 (active)
TAF8 (TATA-box binding protein associated factor 8),Vehicle,OCI-C5x (clear cell),3,35.9 (active)
TAF8 (TATA-box binding protein associated factor 8),Vehicle,OCI-P5x (serous),1,68.5 (active)
TAF8 (TATA-box binding protein associated factor 8),Vehicle,OCI-P5x (serous),2,76.8 (active)
TAF8 (TATA-box binding protein associated factor 8),Vehicle,OCI-P5x (serous),3,80 (active)
CHKA (choline kinase alpha),Rucaparib,OCI-C5x (clear cell),1,39.3 (active)
CHKA (choline kinase alpha),Rucaparib,OCI-C5x (clear cell),2,48.7 (active)
CHKA (choline kinase alpha),Rucaparib,OCI-C5x (clear cell),3,44.6 (active)
CHKA (choline kinase alpha),Rucaparib,OCI-P5x (serous),1,73.1 (active)
CHKA (choline kinase alpha),Rucaparib,OCI-P5x (serous),2,72.2 (active)
CHKA (choline kinase alpha),Rucaparib,OCI-P5x (serous),3,72.6 (active)
CHKA (choline kinase alpha),Vehicle,OCI-C5x (clear cell),1,58.4 (active)
CHKA (choline kinase alpha),Vehicle,OCI-C5x (clear cell),2,55.8 (active)
CHKA (choline kinase alpha),Vehicle,OCI-C5x (clear cell),3,60.9 (active)
CHKA (choline kinase alpha),Vehicle,OCI-P5x (serous),1,72.4 (active)
CHKA (choline kinase alpha),Vehicle,OCI-P5x (serous),2,84.8
CHKA (choline kinase alpha),Vehicle,OCI-P5x (serous),3,45.7 (active)
